Values from PubChem BioAssay AID1259425 (University of Nebraska Medical Center, 2018)

Aim: 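Find knockdowns that reproduce the gene expression pattern seen when KSR1 is lost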 (primary screen)
Cell system: HCT116 human colon cancer cells
Reagents: siRNA pool against human genes, 50 nM siRNA
Measurement: 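mRNA of six signature genes measured together by branched-DNA assay after 50 nM siRNA pool, blank removed, divided by geometric mean of two housekeeping genes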
Direction: BNIP3L mRNA: higher = more BNIP3L transcript after knockdown; NDRG1 mRNA: higher = more NDRG1 transcript after knockdown; BNIP3 mRNA: higher = more BNIP3 transcript after knockdown; ALDOC mRNA: higher = more ALDOC transcript after knockdown; ACSL5 mRNA: higher = more ACSL5 transcript after knockdown
The deposit covers about 14,000 reagents; below is an unselected part. Reagent sequences are not shown. The record does not give: the time to read-out.

target	BNIP3L mRNA, set 1	NDRG1 mRNA, set 1	BNIP3 mRNA, set 1	ALDOC mRNA, set 1	ACSL5 mRNA, set 1
NDE1 (nudE neurodevelopment protein 1)	0.126	0.113	0.355	0.0245	0.113
GALNT5 (polypeptide N-acetylgalactosaminyltransferase 5)	0.101	0.131	0.22	0.0197	0.157
COPS5 (COP9 signalosome subunit 5)	0.178	1.03	0.364	0.0222	0.344
ZNF528 (zinc finger protein 528)	0.111	0.098	0.306	0.0169	0.216
CABP5 (calcium binding protein 5)	0.153	0.105	0.385	0.0334	0.0689
CTDSP1 (CTD small phosphatase 1)	0.0718	0.169	0.203	0.0262	0.19
BLOC1S4 (biogenesis of lysosomal organelles complex 1 subunit 4)	0.14	0.345	0.339	0.05	0.131
APLP1 (amyloid beta precursor like protein 1)	0.125	0.197	0.321	0.0126	0.313
WHRN (whirlin)	0.123	0.244	0.448	0.0373	0.104
ADGRF2P (adhesion G protein-coupled receptor F2, pseudogene)	0.0796	0.193	0.422	0.0542	0.25
LCORL (ligand dependent nuclear receptor corepressor like)	0.0824	0.126	0.296	0.0108	0.157
ZNF587 (zinc finger protein 587)	0.0734	0.263	0.274	0.0377	0.192
CDK5RAP3 (CDK5 regulatory subunit associated protein 3)	0.405	0.811	0.599	0.0136	0.689
ODAM (odontogenic, ameloblast associated)	0.108	0.321	0.244	0.0389	0.0344
SPIN1 (spindlin 1)	0.383	0.231	0.519	0.0417	0.27
LCMT1 (leucine carboxyl methyltransferase 1)	0.0501	0.249	0.287	0.017	0.103
CSTA (cystatin A)	0.195	0.134	0.308	0.0581	0.309
LY6D (lymphocyte antigen 6 family member D)	0.159	0.189	0.472	0.0137	0.204
LTA (lymphotoxin alpha)	0.236	0.312	0.662	0.0231	0.261
NPRL3 (NPR3 like, GATOR1 complex subunit)	0.0674	0.477	0.314	0.0499	0.114

A few values from above:
Entry for CABP5 (calcium binding protein 5) in “NDRG1 mRNA, set 1”: 0.105
APLP1 (amyloid beta precursor like protein 1), ACSL5 mRNA, set 1: 0.313
For “BNIP3 mRNA, set 1”, CSTA (cystatin A) shows 0.308
